# In the supplement of paper PMC8728848:
# The other results are listed elsewhere or left out.
# What was measured:
# Experiment in all cases: glycan array binding signal (z-score within array); higher = stronger binding
# Conditions in all cases: glycan notation: IUPAC condensed, linker removed
# [1] = molecular target: Neu5Ac(a2-8)Neu5Ac(a2-3)Gal(b1-3)GalNAc(b1-4)[Neu5Ac(a2-8)Neu5Ac(a2-3)]Gal(b1-4)Glc
# Method in brief: (§1)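 Arrays were curated from the Consortium for Functional Glycomics database, 3228 in total, and kept only where the protein sequence was available. Binding is expressed as a within-array Z-score. This score was averaged across arrays of the same protein sequence at different concentrations or buffers and across linkers, and negative values can be read as non-binding.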
# [2] = molecular target: Neu5Ac(a2-8)Neu5Ac(a2-3)Gal(b1-4)Glc
# Method in brief: as §1
# [3] = molecular target: Neu5Ac(a2-8)Neu5Ac(a2-3)Gal(b1-4)GlcNAc
# Method in brief: as §1
# [4] = molecular target: Neu5Ac(a2-8)Neu5Ac(a2-3)[Gal(b1-3)GalNAc(b1-4)]Gal(b1-4)Glc
# Method in brief: as §1
# [5] = molecular target: Neu5Ac(a2-8)Neu5Ac(a2-3)[GalNAc(b1-4)]Gal(b1-4)Glc
# Method in brief: as §1
# [6] = molecular target: Neu5Ac(a2-8)Neu5Ac(a2-8)Neu5Ac
# Method in brief: as §1
# [7] = molecular target: Neu5Ac(a2-8)Neu5Ac(a2-8)Neu5Ac(a2-3)Gal(b1-4)Glc
# Method in brief: as §1
# [8] = molecular target: Neu5Ac(a2-8)Neu5Ac(a2-8)Neu5Ac(a2-3)[Gal(b1-3)GalNAc(b1-4)]Gal(b1-4)Glc
# Method in brief: as §1
# [9] = molecular target: Neu5Ac(a2-8)Neu5Ac(a2-8)Neu5Ac(a2-3)[GalNAc(b1-4)]Gal(b1-4)Glc
# Method in brief: as §1
# [10] = molecular target: Neu5Ac(a2-8)Neu5Ac(a2-8)Neu5Ac(a2-8)Neu5Ac(a2-3)[GalNAc(b1-4)]Gal(b1-4)Glc
# Method in brief: as §1
# [11] = molecular target: Neu5Ac(a2-8)Neu5Gc(a2-3)Gal(b1-4)GlcNAc
# Method in brief: as §1
# [12] = molecular target: Neu5Ac(b2-6)Gal(b1-4)GlcNAc
# Method in brief: as §1
# [13] = molecular target: Neu5Ac(b2-6)GalNAc
# Method in brief: as §1
# [14] = molecular target: Neu5Ac9Ac(a2-3)Gal(b1-3)GlcNAc
# Method in brief: as §1
# [15] = molecular target: Neu5Ac9Ac(a2-3)Gal(b1-4)GlcNAc
# Method in brief: as §1
# [16] = molecular target: Neu5Ac9Ac(a2-6)Gal(b1-4)GlcNAc
# Method in brief: as §1
# [17] = molecular target: Neu5Gc(a2-3)Gal(b1-3)GlcNAc
# Method in brief: as §1
# [18] = molecular target: Neu5Gc(a2-3)Gal(b1-3)[Fuc(a1-4)]GlcNAc
# Method in brief: as §1
# [19] = molecular target: Neu5Gc(a2-3)Gal(b1-4)Glc
# Method in brief: as §1
# [20] = molecular target: Neu5Gc(a2-3)Gal(b1-4)GlcNAc
# Method in brief: as §1
# [21] = molecular target: Neu5Gc(a2-3)Gal(b1-4)GlcNAc(b1-3)Gal(b1-4)GlcNAc(b1-2)Man(a1-3)[Neu5Gc(a2-3)Gal(b1-4)GlcNAc(b1-3)Gal(b1-4)GlcNAc(b1-2)Man(a1-6)]Man(b1-4)GlcNAc(b1-4)GlcNAc
# Method in brief: as §1
# [22] = molecular target: Neu5Gc(a2-3)Gal(b1-4)[Fuc(a1-3)]GlcNAc
# Method in brief: as §1
# [23] = molecular target: Neu5Gc(a2-6)Gal(b1-4)GlcNAc
# Method in brief: as §1
# [24] = molecular target: Neu5Gc(a2-6)GalNAc
# Method in brief: as §1
# [25] = molecular target: Neu5Gc(a2-8)Neu5Ac(a2-3)Gal(b1-4)GlcNAc
# Method in brief: as §1
# [26] = molecular target: Neu5Gc(a2-8)Neu5Gc(a2-3)Gal(b1-4)GlcNAc
# Method in brief: as §1
# [27] = molecular target: Neu5Gc(a2-8)Neu5Gc(a2-3)Gal(b1-4)GlcNAc(b1-3)Gal(b1-4)GlcNAc
# Method in brief: as §1
# [28] = molecular target: Neu5Gc(a2-8)Neu5Gc(a2-6)Gal(b1-4)GlcNAc
# Method in brief: as §1
# [29] = molecular target: Neu5Gc(b2-6)Gal(b1-4)GlcNAc
# Method in brief: as §1
binder,measurement,setting,value
"GST-Gap1 (Streptococcus parasanguinis), A1C3L5 (protein) MFYFVPSWYNGQRQWYYDTPWWFRVKNRMTFDDSVNQVKMFLQGQEEIGLMILNYQPQLRYFLHKQNIFGIYYWSFFDDIQNITRSYTKIIHLKDLNWPEGCEFLYSPFAVVVRLKGEIFAIVNYAEDGNLHSVSFQKNGKVTKDYIFDDRGFLSSILYYDIDERPLYQDYLNINGVWQVREFLKKENDPTPILMINDFSDQTFSKKYYNGWEELIKERLAIFQNNHVENEDVFVLASDTQHNQLVSSIFKEHRKIYSFFGNRFNLENLGQDRISINDATFLVVDTEKNEELLRKTCENLVFKSIPIVRLSPFDSRLRLGHSQTVKEQIIYFHIDNIELDELYSVIAIILELMTLHLDIELRIVTFRQDFQLDLLKTWIIDFIKTNHFEDLLFKQISEGENEIEDEGEIELSRIAMECFTNENQIIKCLDTARLVIDLGIEPDLYTQIASISAGIPQINRVSSDYVIHQKNGLVISDISKLSSAIEFYFDGLFNWNEALIYAVRKMSDYTSGKILKQWKGMLKKK",glycan array binding signal (z-score),[1],0.195
same,glycan array binding signal (z-score),[2],0.176
same,glycan array binding signal (z-score),[3],-0.482
same,glycan array binding signal (z-score),[4],-0.001
same,glycan array binding signal (z-score),[5],-0.242
same,glycan array binding signal (z-score),[6],-0.489
same,glycan array binding signal (z-score),[7],-0.375
same,glycan array binding signal (z-score),[8],-0.581
same,glycan array binding signal (z-score),[9],0.044
same,glycan array binding signal (z-score),[10],-1.06
same,glycan array binding signal (z-score),[11],-1.39
same,glycan array binding signal (z-score),[12],-0.254
same,glycan array binding signal (z-score),[13],-0.088
same,glycan array binding signal (z-score),[14],0.283
same,glycan array binding signal (z-score),[15],-0.629
same,glycan array binding signal (z-score),[16],-0.139
same,glycan array binding signal (z-score),[17],0.544
same,glycan array binding signal (z-score),[18],-0.052
same,glycan array binding signal (z-score),[19],-0.763
same,glycan array binding signal (z-score),[20],-0.003
same,glycan array binding signal (z-score),[21],-0.393
same,glycan array binding signal (z-score),[22],0
same,glycan array binding signal (z-score),[23],0.487
same,glycan array binding signal (z-score),[24],0.105
same,glycan array binding signal (z-score),[25],-0.655
same,glycan array binding signal (z-score),[26],-1.05
same,glycan array binding signal (z-score),[27],-0.512
same,glycan array binding signal (z-score),[28],-0.225
same,glycan array binding signal (z-score),[29],0.161

# A portion taken from the entries so far, for reference:
binder,measurement,setting,value
"GST-Gap1 (Streptococcus parasanguinis), A1C3L5 (protein) MFYFVPSWYNGQRQWYYDTPWWFRVKNRMTFDDSVNQVKMFLQGQEEIGLMILNYQPQLRYFLHKQNIFGIYYWSFFDDIQNITRSYTKIIHLKDLNWPEGCEFLYSPFAVVVRLKGEIFAIVNYAEDGNLHSVSFQKNGKVTKDYIFDDRGFLSSILYYDIDERPLYQDYLNINGVWQVREFLKKENDPTPILMINDFSDQTFSKKYYNGWEELIKERLAIFQNNHVENEDVFVLASDTQHNQLVSSIFKEHRKIYSFFGNRFNLENLGQDRISINDATFLVVDTEKNEELLRKTCENLVFKSIPIVRLSPFDSRLRLGHSQTVKEQIIYFHIDNIELDELYSVIAIILELMTLHLDIELRIVTFRQDFQLDLLKTWIIDFIKTNHFEDLLFKQISEGENEIEDEGEIELSRIAMECFTNENQIIKCLDTARLVIDLGIEPDLYTQIASISAGIPQINRVSSDYVIHQKNGLVISDISKLSSAIEFYFDGLFNWNEALIYAVRKMSDYTSGKILKQWKGMLKKK",glycan array binding signal (z-score),[19],-0.763
same,glycan array binding signal (z-score),[20],-0.003
